Reference: PubChem BioAssay AID2685 (National Center for Advancing Translational Sciences (NCATS), 2010)
Several values for one entry are separate records, joined by “and”; a condition that tells them apart may be missing. Identical values can stand only once. This is one part of the list. Shown are side measurements of this screen, not its main read-out; they come without a call. Most of these compounds were active or inconclusive in the main read-out, so they are no random draw. The note in brackets gives the kind of curve behind each potency; many fits are weak.

Assay: qHTS Assay for Lipid Storage Modulators in Drosophila S3 Cells;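 for cell number change: cells counted by Cell Tracker Red CMTPX staining in the red channel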
Conditions: BODIPY lipid droplet fluorescence, 18-24 h; for cell number change: measured here: cell count max response, cells fed with added oleic acid
How it was run: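 Drosophila S3 cells got compounds at several concentrations plus oleic acid (400 uM solution). Laser-scanning cytometry with 488 nm excitation read lipid droplets at 500-530 nm and cells at 575-640 nm. Percent activity was relative to 20 uM Triacsin C.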

[1] = measured here: cell number channel AC50, cells fed with added oleic acid
[2] = measured here: lipid fluorescence (Fed channel) AC50, cells fed with added oleic acid

CCOc1ccc(Oc2nc(N(CC)CC)nc(N3CCOCC3)n2)nn1
cell number change: 44%
AC50 [1]: 5.8 µM [rising, partial curve, poor fit]

O=C(Nc1nc(-c2cccc([N+](=O)[O-])c2)cs1)C(c1ccccc1)c1ccccc1
cell number change: 44.3%
AC50 [1]: 2.31 µM [rising, full curve, poor fit]

Cc1cnc(NC(=O)C2=C(O)c3ccccc3S(=O)(=O)N2C)s1
cell number change: -7.85% and 13.5%
AC50 [2]: 1.16 µM [falling, full curve] and 29.1 µM [rising, single point]

CCn1c(SCC(=O)NCCCN2CCCC2=O)nnc1-c1cccc(C)c1
cell number change: -22.9%
AC50 [2]: 0.92 µM [falling, full curve]

COc1cc(C(=O)Nc2sc3c(c2C(=O)O)CCC3)cc(OC)c1OC
cell number change: 30.3%
AC50 [1]: 11.6 µM [rising, partial curve, poor fit]

Cc1ccc(S(=O)(=O)NCc2ccco2)c(C)c1C
cell number change: -2.86%
AC50 [2]: 0.00461 µM [rising, full curve, poor fit]

CCCN=C1NC(=O)C(CC(=O)NCCc2ccc(OC)c(OC)c2)S1 (centres undefined)
cell number change: 25.7%
AC50 [1]: 0.259 µM [rising, full curve, poor fit]
AC50 [2]: 0.291 µM [rising, full curve, poor fit]

O=C(COC(=O)c1cc(-c2cccs2)nn1-c1ccccc1)Nc1cc([N+](=O)[O-])ccc1Cl
cell number change: -13.3%
AC50 [1]: 0.92 µM [falling, full curve, poor fit]
AC50 [2]: 0.58 µM [falling, partial curve]

COc1ccc(-n2cc(C(=O)Nc3cc([N+](=O)[O-])ccc3OC)c3ccccc3c2=O)cc1
cell number change: 33.1%
AC50 [1]: 4.61 µM [rising, partial curve]
AC50 [2]: 1.84 µM [rising, partial curve]

CCOC(=O)CC(N)c1cccc([N+](=O)[O-])c1 (centres undefined)
cell number change: -37.7%
AC50 [1]: 0.13 µM [falling, full curve]
AC50 [2]: 0.116 µM [falling, full curve, poor fit]

COc1ccc(N(CC(=O)Nc2ccccc2C(=O)NCc2ccco2)S(C)(=O)=O)cc1
AC50 [1]: 1.64 µM [rising, partial curve]

COc1ccccc1N1CCN(Cc2ccc(-c3ccccc3[N+](=O)[O-])o2)CC1
cell number change: -14%
AC50 [2]: 14.6 µM [falling, single point]

O=C1NC(=O)C(c2cn(-c3ccccc3)nc2-c2ccc(F)cc2)N1 (centres undefined)
cell number change: 72.1%
AC50 [1]: 29.1 µM [rising, single point]
AC50 [2]: 29.1 µM [rising, single point]

CCN(CC(=O)NCc1ccc(F)cc1)C(=O)CN1CCN(c2ccc(OC)cc2)CC1
cell number change: 23.6%

O=c1c2cc(N3CCOCC3)ccc2[nH]c(=S)n1Cc1ccccc1Cl
cell number change: -9.56%
AC50 [2]: 0.731 µM [falling, full curve, poor fit]

O=C(Nc1ccc2c(c1)OCO2)c1cccc(S(=O)(=O)N2CCCC2)c1
cell number change: 118%
AC50 [1]: 0.82 µM [rising, single point]
AC50 [2]: 0.651 µM [rising, single point]

CCNC(=S)N1C2CCC1CC(NC(=O)NC1CCCCC1)C2 (centres undefined)
cell number change: -26.7%
AC50 [1]: 2.31 µM [falling, full curve, poor fit]
AC50 [2]: 29.1 µM [falling, single point]

O=C(NC1=NCCS1)c1cc(-c2ccc(-c3ccccc3)cc2)nc2ccccc12
cell number change: -2.11%

O=C(Nc1ccc(Br)cc1)c1ccc(-n2cnnn2)cc1
cell number change: 9.58%
AC50 [1]: 0.103 µM [rising, full curve, poor fit]

COc1ccc2[nH]cc(/C=C(/C#N)S(=O)(=O)c3ccccc3)c2c1
cell number change: -15.8%
AC50 [2]: 16.4 µM [rising, single point]

CCOC(=O)NC(NCC(O)c1ccccc1)(C(F)(F)F)C(F)(F)F (centres undefined)
cell number change: 12.4%
AC50 [1]: 3.26 µM [falling, single point]

COCCNC(=O)C(c1ccc(C)cc1)N(CCOC)C(=O)CCC(=O)Nc1nccs1 (centres undefined)
cell number change: 26.9%

Cn1c2ccccc2c(=O)c2c(O)cccc21
cell number change: 31.7%

CCCc1ccc(Oc2c(-c3ccc(O)c(C)c3O)n[nH]c2C)cc1
cell number change: -71.8%
AC50 [1]: 29.1 µM [falling, single point]
AC50 [2]: 29.1 µM [falling, single point]

O=C(Nc1ncc([N+](=O)[O-])s1)c1ccco1
cell number change: -37.6%
AC50 [1]: 18.4 µM [falling, single point]

Cc1cc(-c2ccc(C)c(S(=O)(=O)N3CCN(c4ccc([N+](=O)[O-])cc4)CC3)c2)on1
cell number change: 11.3%
AC50 [1]: 0.259 µM [rising, full curve, poor fit]

Cc1nnc(SCC(=O)Nc2sccc2C(N)=O)s1
cell number change: 1.87%
AC50 [2]: 0.58 µM [falling, full curve]

CC(Sc1nnc(C(F)(F)F)n1C)C(=O)NC(N)=O (centres undefined)
cell number change: 1.23%
AC50 [2]: 0.731 µM [rising, single point]

COc1ccc(OCC(=O)Nc2cccc(-c3nc4ccccc4[nH]3)c2)cc1
cell number change: -17.4%

COc1ccc(OCCC(=O)N2CCOCC2)cc1
cell number change: 3.69%
AC50 [2]: 3.26 µM [falling, partial curve]

Cn1c(=O)[nH]c2sc3c(c2c1=O)CC(C)(C)OC3
AC50 [2]: 0.116 µM [rising, partial curve, poor fit]

Cc1cccc(Nc2nc(N)nc(CN3CCN(C)CC3)n2)c1
cell number change: 3.59%
AC50 [2]: 5.17 µM [falling, single point]

COc1ccc(NC(=O)CN(C)C(=O)c2ccccc2SCC(=O)N2CCCC2)cc1
cell number change: 15.4%

Cc1cccc(C)c1NC(=O)CSc1nnc(-c2ccoc2C)n1CCc1ccccc1
cell number change: 25.4%
AC50 [1]: 0.0731 µM [rising, full curve, poor fit]

O=C1Cc2ccccc2C(=O)N1OCc1ccc(Cl)cc1Cl
cell number change: -0.934%
AC50 [2]: 6.51 µM [rising, partial curve, poor fit]

CCCC12CN3CC(C)(CN(C1)C3c1ccc3c(c1)OCO3)C2=O (centres undefined)
cell number change: -11.1%
AC50 [2]: 1.84 µM [rising, partial curve]

Nc1nc(-c2ccc(Cl)cc2)nc(-c2ccc(Cl)cc2)n1
cell number change: 12%
AC50 [2]: 1.64 µM [rising, partial curve]
